Experiment: Cytotoxicity against human WHCO1 cells after 48 hrs by MTT assay
Conditions: WHCO1, 48 h

In the case of `COc1cccc2c1C(=O)c1c(O)c3c(c(O)c1C2=O)C[C@@](O)(C(=O)CO)C[C@@H]3O[C@H]1C[C@H](N)[C@H](O)[C@H](C)O1` [DOXORUBICIN], the IC50 is reported as 500 nM.
